Results on 66 compounds are retold here after PubChem BioAssay AID2685 (National Center for Advancing Translational Sciences (NCATS), 2010).

In general, AC50 refers to the concentration giving half of the maximal activity seen. A higher AC50 goes with activity only at high concentration.

The other results are listed elsewhere or left out. Further columns of the screen follow, without active or inactive calls. Most of these compounds were active or inconclusive in the main read-out, so they are no random draw. Words in brackets tell the shape of the fitted curve; partial curves, single points and poor fits give uncertain potencies.

The nature of this assay: qHTS Assay for Lipid Storage Modulators in Drosophila S3 Cells.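 As to cell number change: cells counted by Cell Tracker Red CMTPX staining in the red channel.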 The settings on record: BODIPY lipid droplet fluorescence, 18-24 h; for cell number change: measured here: cell count max response, cells fed with added oleic acid. The method, boiled down: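 Drosophila S3 cells got compounds at several concentrations plus oleic acid (400 uM solution). Laser-scanning cytometry with 488 nm excitation read lipid droplets at 500-530 nm and cells at 575-640 nm. Percent activity was relative to 20 uM Triacsin C.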
(Quantitative high-throughput screening tests each substance at several concentrations.)

The mark [1] stands for this setting: measured here: lipid fluorescence (Fed channel) AC50, cells fed with added oleic acid.
Where [2] appears, read: measured here: cell number channel AC50, cells fed with added oleic acid.

On to `CCOC(=O)CSc1snnc1-c1ccccc1`, for which the cell number change is -17.6%. In addition, the AC50 under setting [1] was 0.164 µM [falling, full curve, poor fit].

For `Cc1cc(C)c2nc(N)sc2c1`, the cell number change was 42.9%. Further, the concentration at half-maximal activity (AC50) under setting [2] was 29.1 µM [rising, single point]. Also, the AC50 under setting [1] was 10.3 µM [rising, single point]. On to `COc1ccc(CC(=O)NC(C)c2nnc(SCC(=O)Nc3nc(C)cs3)n2C)cc1` (stereo unspecified), for which the cell number change was -3.71%. Besides, the AC50 under setting [1] was 6.51 µM [rising, single point]. `CCCCn1nnnc1SCC(=O)c1cc(Cl)ccc1OC`: the cell number change was 31.8%. Moreover, the AC50 under setting [2] is 29.1 µM [rising, single point]. Consider `CCOC(=O)c1nc(NNC(=O)c2ccc([N+](=O)[O-])cc2)sc1C`, for which the cell number change is -50.8%. For the same compound, under setting [2], the AC50 is 2.91 µM [falling, partial curve, poor fit].

With `O=C(COC(=O)c1ccc(O)cc1O)Nc1ccc(Cl)cn1`, the cell number change is 13.5%. The concentration at half-maximal activity (AC50) under setting [1] was 7.31 µM [rising, partial curve]. As to `O=C(Oc1cccc(N2C(=O)CCC2=O)c1)C1CC(=O)N(c2ccc(F)cc2)C1` (stereo unspecified), the cell number change was -2.28%. For `O=C(CSc1ccc2ccccc2c1)NCCCN1CCCC1=O`, the cell number change was -13.2%. In addition, the AC50 under setting [1] is 10.3 µM [falling, single point]. In the case of `CC(=O)Nc1ccc(NC(=O)C2CCCN2C(=O)NC2CCCCC2)cc1` (stereo unspecified), the cell number change stood at 11.8%. On to `CNCc1ccc(OCc2ccccc2)c(OC)c1`, for which the cell number change was -83.8%. Further, under setting [2], the AC50 is 16.4 µM [falling, partial curve, poor fit]. Besides, under setting [1], the AC50 was 23.1 µM [falling, partial curve]. Turning to `CC1(C)CNc2cc(N)ccc2S1`, the cell number change was -13.1%. For the same compound, under setting [1], the AC50 was 0.00461 µM [falling, full curve, poor fit]. Take `O=c1[nH]c(C2CCN(S(=O)(=O)c3ccc4c(c3)OCCO4)CC2)nc2c1nnn2Cc1cccc(F)c1`: the cell number change came to 4.17%.

As to `CCOC(=O)N1CCC(Nc2nc3ccccc3nc2NS(=O)(=O)c2ccc(Cl)cc2)CC1`, the AC50 under setting [2] is 1.3 µM [rising, partial curve] and the AC50 under setting [1] is 1.3 µM [rising, partial curve]. As to `CCOC(=O)c1[nH]c2ccc(OC)cc2c1NC(=O)CCN1CCC(C)CC1`, the cell number change is 14.9%. For the compound `Cc1cc(Nc2nc3ccccc3nc2Cl)n(-c2ccccc2)n1`, the cell number change was found to be 30.2%. Under setting [2], the AC50 was 0.092 µM [rising, full curve, poor fit]. Besides, under setting [1], the AC50 is 18.4 µM [rising, single point].

`COc1ccc(NC(=O)c2cc(C)no2)cc1Cl`: the cell number change was found to be 39.5%. For the same compound, the AC50 under setting [2] is 23.1 µM [rising, single point]. On to `O=C(NCc1cccnc1)c1cccc(OC2CCN(Cc3ccc(CO)o3)CC2)c1`, for which the cell number change worked out at 17.9%. In addition, the AC50 under setting [2] is 0.058 µM [rising, full curve, poor fit]. `CCc1cc(CN2CCOCC2)c(NC(=O)c2ccccc2)s1`: the cell number change is 1.19%. For the same compound, the AC50 under setting [1] was 6.51 µM [rising, partial curve, poor fit]. As for `O=C1C2C3C=CC(CO)(O3)C2C(=O)N1c1ccccc1-c1ccccc1` (stereo unspecified), the cell number change is -91.1%. Moreover, under setting [2], the AC50 is 8.2 µM [falling, partial curve]. The AC50 under setting [1] is 8.2 µM [falling, partial curve]. For the compound `Cc1[nH]c2ccccc2c1C(=O)C(C)OC(=O)c1ccc([N+](=O)[O-])o1` (stereo unspecified), the cell number change is -69%. Take `COc1ccc(OC)c(NC(=O)c2ccc(CSc3ncccn3)cc2)c1`: the cell number change is 6.23%. As for `CCc1ccccc1NC(=O)c1ccc(-c2csc(C)n2)cc1`, the cell number change is 2.36%. For the same compound, under setting [1], the AC50 was 8.2 µM [rising, partial curve]. Take `O=C(Nc1ccccc1Cl)N1CCCN(c2nc(-c3ccccc3)ns2)CC1`: the cell number change worked out at 10.4%. The AC50 under setting [1] is 0.116 µM [falling, full curve, poor fit]. `COC(=O)c1cccc(NC(=O)c2onc3c2CCCC3)c1`: the cell number change is 41.2%. Besides, under setting [2], the AC50 is 20.6 µM [rising, single point]. For `CCCC(=O)NC(=S)Nc1ccc(NC(=O)c2cccs2)cc1`, the cell number change is -19.1%. `O=S1(=O)CC=C(CSC(=S)NC2CCS(=O)(=O)C2)C1` (stereo unspecified): the cell number change was -23.8%. Besides, the AC50 under setting [1] was 9.2 µM [falling, partial curve]. With `CC1C2CC(CC1(C)C)N(C(=O)Nc1ccc3nccnc3c1)C2` (stereo unspecified), the cell number change was -9.34%. Further, the AC50 under setting [1] was 18.4 µM [rising, single point]. With `COc1ccc2[nH]c(=O)c(C(=O)O)cc2c1`, the cell number change was -1.59%. Besides, the AC50 under setting [1] is 0.731 µM [falling, single point]. `COc1cc(C(=O)NCc2nnc(SCC(=O)Nc3nc4ccccc4s3)o2)cc(OC)c1OC`: the cell number change was -2.59%. Also, the AC50 under setting [1] was 29.1 µM [rising, single point]. In the case of `Cc1ccc(-n2c(Cc3cccn3C)nnc2SCC(=O)Nc2nnc(C)s2)cc1`, the cell number change was -28.9%. Moreover, under setting [1], the AC50 was 9.2 µM [falling, partial curve, poor fit].

With `CCCCOC(=O)c1ccc(OC(=O)N2CCOCC2)cc1`, the cell number change was determined as 17.6%. The AC50 under setting [1] is 0.184 µM [rising, full curve, poor fit]. `Nc1nc(N2CCCCC2)nc2ccccc12`: the cell number change was 59.8%. Also, the AC50 under setting [2] is 23.1 µM [rising, single point]. Under setting [1], the AC50 was 6.51 µM [rising, single point]. Turning to `O=C(O)c1ccc2c(c1)nnn2C1CCCCC1`, the cell number change was determined as 6.29%. The same measure, in the same setting: under `COc1cc2ccccc2cc1C(=O)Nc1ccccc1C` stands -5.26%; under `CCOC(=O)Cc1csc(NC(=O)CN2C(=O)c3ccccc3C2=O)n1`, 3.27%. `N#Cc1ccc(N2C(=O)[C@@H]3C(C(=O)C(c4ccccc4)c4ccccc4)=NN[C@@H]3C2=O)cc1`: the cell number change was determined as 9.41%. Further, the half-maximal activity concentration (AC50) under setting [1] is 14.6 µM [rising, partial curve, poor fit]. For the compound `N#Cc1ccccc1NC(=O)CN1CCN(c2ccccn2)CC1`, the cell number change was -16.7%. Besides, the AC50 under setting [2] was 0.461 µM [falling, full curve, poor fit]. With `Cc1ccc(C(=O)Nc2cccc(S(=O)(=O)N3CCCCC3)c2)cc1[N+](=O)[O-]`, the cell number change is -30.1%. In addition, the AC50 under setting [2] was 20.6 µM [falling, single point]. Further, the AC50 under setting [1] was 25.9 µM [falling, single point]. As to `CCN(CC)C(=O)Cn1cc(C(=O)C(=O)NCc2cccnc2)c2ccccc21`, the cell number change turned out to be 40%. Besides, under setting [2], the AC50 was 0.82 µM [rising, full curve, poor fit]. In the case of `COc1ccc(C(C)C)cc1S(=O)(=O)Nc1ncn[nH]1`, the cell number change came to 17.1%. `CCC(C)(C)c1ccc(OC(=O)c2cccnc2Cl)cc1`: the cell number change came out at 5.41%. As to `O=C(NCc1ccccc1)c1ccc2c(=O)n3c(nc2c1)CCCCC3`, the cell number change was determined as 7.21%. For the same compound, under setting [1], the AC50 was 29.1 µM [falling, single point]. Turning to `COC(=O)C1CC(O)CN1C(=O)NC1CCCCC1` (stereo unspecified), the cell number change turned out to be 10.2%. In addition, the AC50 under setting [1] is 25.9 µM [rising, single point].

`O=C(c1cccc(C(F)(F)F)c1)C1CCCN(C(=O)C2CCOCC2)C1` (stereo unspecified): under setting [2], the AC50 was 2.59 µM [rising, partial curve]. `Cc1cc(C)cc(OCC(=O)NNC(=O)c2cc3ccccc3o2)c1`: the cell number change was found to be 0.481%. For the same compound, the AC50 under setting [1] was 6.51 µM [rising, single point]. For `O=C(Nc1ccc2c(c1)OCO2)C1CCN(C(=O)c2cccs2)CC1`, the cell number change was determined as 110%. Besides, under setting [2], the AC50 is 18.4 µM [rising, partial curve]. For the same compound, under setting [1], the AC50 is 1.84 µM [rising, single point]. `O=C(CC1Nc2ccccc2NC1=O)c1ccccc1` (stereo unspecified): the cell number change turned out to be 76.9%. For the same compound, under setting [2], the AC50 is 29.1 µM [rising, single point].

Consider `O=C(Nc1cccc2c1C(=O)NC2=O)c1ccc(N2C(=O)CCC2=O)cc1`, for which the cell number change is -23%. Also, under setting [1], the AC50 was 6.51 µM [falling, single point]. `Cc1ccc(NC(=S)N(CCN(C)C)Cc2cccs2)cc1C`: the cell number change worked out at 48.2%. The AC50 under setting [2] is 4.11 µM [rising, full curve]. The AC50 under setting [1] was 1.46 µM [rising, full curve].

With `Cc1ccc(C)c2sc(NC(=O)c3nc4ccccc4s3)nc12`, the cell number change turned out to be 44.3%. Besides, the AC50 under setting [2] was 29.1 µM [rising, single point]. Further, under setting [1], the AC50 was 29.1 µM [rising, single point]. Take `CC1(C)Cc2c(sc(NC(=O)C(=O)NCCCN3CCOCC3)c2C(N)=O)CO1`: the cell number change was -7.37%. In addition, the AC50 under setting [1] is 0.58 µM [rising, single point].

Consider `CCN(CC)CCNC(=O)C(=O)NCC1OCCN1C(=O)c1ccc2c(c1)OCO2` (stereo unspecified), for which the cell number change turned out to be 11.3%. In the case of `CN1CCN(S(=O)(=O)c2cccc(C(=O)Nc3cc(C(F)(F)F)ccc3N3CCCCC3)c2)CC1`, under setting [1], the AC50 was 32.6 µM [rising, single point]. As to `Cc1ccc2c(c1)C(c1ccc(F)cc1)N(C(=O)c1cc3ccccc3oc1=O)CC(=O)N2` (stereo unspecified), the cell number change was -8.4%.

For the compound `CCOc1ccc(C(=O)NC2CCN(S(=O)(=O)c3ccccc3)CC2)cc1`, the cell number change was -10.4%. Also, the AC50 under setting [1] was 29.1 µM [rising, partial curve]. In the case of `Cc1cc(C)cc(NC(=O)C2CCN(c3nc(C)cc(C)n3)CC2)c1`, the cell number change was 3.21%. The AC50 under setting [1] is 5.17 µM [rising, single point].

On to `COc1cccc(NC(=O)c2ccccc2OCc2c(C)noc2C)c1`, for which the cell number change turned out to be 50%. For the same compound, under setting [2], the AC50 was 20.6 µM [rising, single point]. As to `c1ccc(Cn2cc(-c3cccnc3)cn2)cc1`, the cell number change is -18.9%. As to `CCn1nc(C)c(CNC(=O)C2CCC(=O)N(Cc3cccc(F)c3)C2)c1C` (stereo unspecified), the cell number change turned out to be 10.4%. For the same compound, the AC50 under setting [2] was 1.16 µM [rising, full curve, poor fit].

As for `CC(=O)N/C(=C/C(C)C)c1ccccc1`, the cell number change came out at 6.02%. On to `Cc1ccc(C(=O)N2CCN(C(=O)CN3CCOCC3)C2)cc1`, for which the cell number change was found to be 1.79%. Besides, the AC50 under setting [1] was 1.64 µM [falling, partial curve]. Regarding `COc1cc(OC)c(NC(=O)CSc2nc3ccncc3[nH]2)cc1Cl`, the cell number change was 6.42%. In addition, the AC50 under setting [1] is 29.1 µM [rising, single point].

`CC1(C)C(=O)OC(C(=O)c2ccccc2)C2(CCCCC2)C1=O` (stereo unspecified): under setting [1], the AC50 is 6.51 µM [falling, single point].

In the case of `COc1cc(NS(=O)(=O)c2ccc(C)c(C)c2)c(OC)cc1Cl`, the cell number change came out at 20.5%. For `CNC(=S)NNC(=O)c1cn(C)nc1C`, the cell number change stood at 25.8%. Besides, the AC50 under setting [1] was 32.6 µM [rising, single point]. As for `CCN(CC(=O)Nc1c(F)cccc1F)C(=O)c1ccccn1`, the cell number change was 0.519%. Further, the AC50 under setting [1] is 0.326 µM [falling, full curve].
